From patent US20140079716A1
Results are given in words; binding and its absence hold for the method and conditions named. Some results given as binding are weak or reduced against the parent protein; the word gives no strength.

T1: LTα3 (soluble homotrimer) (UniProt P01374)
T1 sequence (looked up): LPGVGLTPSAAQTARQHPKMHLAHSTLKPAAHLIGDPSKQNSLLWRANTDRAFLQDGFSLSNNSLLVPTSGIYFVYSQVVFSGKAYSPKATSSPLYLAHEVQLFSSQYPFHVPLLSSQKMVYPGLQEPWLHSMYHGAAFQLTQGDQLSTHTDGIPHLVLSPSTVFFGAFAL

T2: LTα1β2 on the surface of PMA-treated II-23 cells (UniProt P01374)
T2 sequence 1: T1 sequence (looked up)
T2 sequence 2: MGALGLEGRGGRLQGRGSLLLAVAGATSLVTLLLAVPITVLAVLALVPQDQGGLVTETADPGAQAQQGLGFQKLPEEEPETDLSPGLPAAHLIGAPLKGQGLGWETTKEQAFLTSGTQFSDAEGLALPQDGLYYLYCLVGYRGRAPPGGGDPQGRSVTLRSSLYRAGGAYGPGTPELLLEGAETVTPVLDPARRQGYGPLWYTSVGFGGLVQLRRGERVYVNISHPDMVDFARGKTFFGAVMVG

B1: LT101 (P1G4.4) / LT103 (P1G9.1) (antibody, V domains shown)
VH: QVQLQQSGPELVKPGASVQISCKASGYVFSSSWMNWVKQRPGRGLEWIGRIYPGDGDTDYTGKFKGKATLTADKSSNTAYMQLSSLTSVDSAVYFCASGYFDFWGQGTPLTVSS
VL: DITMTQSPSSMYASLGERVTITCKASQDMNNYLRWFQQKPGKSPQTLIFRANRLVDGVPSRFSGSGSGQDYSLTISSLEFEDMGIYYCLQHDKFPPTFGGGTKLEIK
B2: A0D9 (antibody, V domains shown)
VH: QVQLKQSGPGLVQPSQSLSITCTVSGFSLSTYGVHWVRQFPGKGLEWLGVIWRGGNTNYNAAFMSRLTISKDNSKSQVFFKMNSLQAKDTAIYYCVRNQIYDGYYDYAMDYWGQGTSVTVSS
VL: DIKMTQSPSSMYASLGERVTITCKASQDINTYLNWLQQKPGKSPKTLIYRANRLVDGVPSRFSGRGSGQDYSLTISSLEYEDVGIYYCLHYDAFPWTFGGGTKLEIK
B3: A1D5 (antibody, V domains shown)
VH: EVQLQQSGPELVKPGASVKISCKASGYSFTGYFMNWMRQSHGKSLEWIGRINPYNGDSFYNQKFKDKATLTVDKSSTTAHMELLSLTSEDSAVYYCGRGYDAMDYWGQGTSVTVSS
VL: DIQMTQTTSSLSASLGDRVTISCRASQDISNFLTWYQQKPDGTVKLLIYYTSKLHSGVPSRFSGSGSGTDYSLTISNLEPGDIATYYCQQVSKFPWTFGGGAKLEIK
B4: LT102 (P1G8.2) (antibody, IgG1, V domains shown)
VH: EVKLVESGGGLVKPGGSLKLSCAVSGFTFSDYYMYWIRQTPEKRLEWVATIGDGTSYTHYPDSVQGRFTISRDYATNNLYLQMTSLRSEDTALYYCARDLGTGPFAYWGQGTLVTVSA
VL: DVLMTQTPRSLPVSLGDQASISCRSSQNIVHSNGNTYLEWYLQKPGQSPKLLIYKVSNRFSGVPDRFSGSGSGTDFTLKISRVEAEDLGVYYCFQGSHFPWTFGGGTKLEIK
B5: LT107 (P5C4.1) (antibody, V domains shown)
VH: QVQLKQSGPGLVQPSQNLSITCTVSGFSLTNYGIHWIRQPPGKGLEWLGVIWSGGSTDHNAAFISRLSISKDNSKSQVFFTMNSLEVDDTAIYYCARNRAYYRYEGGMDYWGQGTSVTVSS
VL: DIKMTQSPSSMYASLGERVTITCKASQDINTYLNWFQQKPGKSPMTLIYRADRLLDGVPSRFSGSGSGQDYSLTISSLEDEDMGIYYCQQYDDFPLTFGAGTKLELK
B6: LT105 (P2E9.7) (antibody, IgG1, V domains shown)
VH: DVQLQESGPGLVKPSQSLSLTCSVTGYSITSGYYWNWIRQFPGNKLEGMGYISYDGSNNYNPSLKNRISITRDSSKNQFFLKLNSVTAEDSGTYYCARDAYSYGMDYWGQGTSVTVSS
VL: DIVLTQSPASLAVSLGQRATISCRASESVDNYGISFMHWYQQKPGQPPKLLIYRASNLESGIPARFSGSGSRTDFTLTINPVETDDVATFYCQQSNKDPYTFGGGTKLEIK
B7: 9B4 (antibody, V domains shown)
VH: QVTLKESGPGILQPSQTLSLTCSFSGFSLSTSGMGVSWIRQPSGKGLEWLAHIYWDDDKRYNPSLRSRLTISKDTSRNQVFLKITSVDTADTATYYCARREGYYGSSFDFDVWGAGTTVTVSS
VL: QIVLSQSPAILSASPGEKVTMTCRASSSVSYMIWYQQKPGSSPKPWIYATSSLASGVPTRFSGSGSGTSYSLTISRVEAADAATYYCQQWSYNPLTFGAGTKLELK

What follows are binders tested against T1, LTα3 (soluble homotrimer) (assay: ELISA on plate-coated LTα3 (1 or 5 ug/ml), HRP anti-murine Ig detection).

binding | Binder
binds | B1

The binders below were run against T2, LTα1β2 on the surface of PMA-treated II-23 cells (assay: competition FACS (II-23 assay, as in FIG. 4): LT-expressing cells, varied antibody, labelled LTβR-Ig; MFI of bound LTβR-Ig).

binding | Binder
binds | B2
binds | B3
binds | B4
binds | B5
binds | B1
binds | B6

These binders were tested against T2, LTα1β2 on the surface of PMA-treated II-23 cells (assay: competition FACS (II-23 assay): PMA-treated II-23 cells, varied antibody, then biotin-LTβR-Ig at 1 ug/ml, streptavidin-PE; MFI of bound LTβR-Ig).

binding | Binder
binds | B4
binds | B7
binds | B6
